Assay results

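Luminescence from an EWS-FLI1 target-promoter (NR0B1) reporter, set against a CMV-promoter reporter, two days after silencing single genes in TC32 Ewing sarcoma cells.
Each siRNA was applied at 20 nM.
A z-score of the log NR0B1-over-CMV signal, less the median of siRNAs with the same seed; more negative means a stronger specific loss of the NR0B1 reporter.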

This is part of the screen; most of the strongest results are not listed here.
Sequences are the guide (antisense) strand, without overhang.

strand | gene | seed-corrected z-score
UCACUCGUCAUCAAAGUUC | RAD23A | -0.7893
UUGUUUACAACUUUGACAG | ZAR1 | 2.018
UAACUGACUUUGCUAAUCC | FOXL2NB | 0.3355
UUGGAGGUCACAAACUUGC | FSCN1 | 0.5722
UUAGAUACUGGAUAGAGGG | RFX7 | 1.051
UUCAGAAUGAGCUCCUUGC | ZNF469 | 0.2689
UACACGUCCUCCCUCAUGC | THOP1 | -0.1167
UUCAUAGCCUCCGUUGAUG | ATP13A5 | -1.131
UACUUGUCAAUCAUAGACC | NRDC | -0.9785
AUUCUUUCAAUGGAGGCUU | GNG12 | 0.7139
UAAGGAUAUUCGGGAAUCC | DTHD1 | 0.2082
UUAGCAAAGUCUCUUAUCC | DCP2 | 0.6051
UUCUGGAUCACGUCACCGA | FGD2 | 0.7
UCAGUGACGAUCGAGACAG | PLEKHA7 | 0.7125
UAGGAUCAUACCAACAGCC | SLC15A2 | 0.12
UAUGUAAGUAAGACGAGAG | COL17A1 | 0.1243
AAGAGGUGAAGUGAAGUGG | SDF2 | -1.381
UGACCUACAGGGAUCAUAG | MRPL2 | 0.2459
UUCGUGGCUCUAUUGAUUC | GGA1 | -0.3005
UAAGAGAACUCGGAGCUUC | ZXDC | 0.212
AAACAAGGUACUUAGCUGC | MSR1 | -0.2113
UUGUCUUUGGGAUCCAUUG | TARP | -0.7854
UUCUUUUUCAUUCUCCGGU | HOXC12 | -0.09372
UACUUGGUAGCAUAACCCA | HAS1 | -0.07943
AUAUCUUCAAAGCAUUCUC | WDR74 | 0.9728
AAAAUGUCAGCUACCGAGU | YPEL4 | 0.7446
UUUUCCAAAAGUUCUGCCU | TCF15 | -0.9141
UUAUUAAUGAACGGUCAUC | TMEM248 | 0.01906
UGACAGUAAAGGAAAGGCC | ABCC4 | 0.7469
UCAAUAUCCAGAGCCCUGU | AP3D1 | -0.3742
UCUGGUAGCGGAUCACCUG | LZTS2 | 0.2217
UCCAUGAACAUACUCAUUC | VRK3 | 0.9486
UUGAGAGUCACACUCAUGG | ZNF599 | 0.3279
UAGCGGUUAAGGCAAGUCC | MARS2 | 0.9545
UGUUGUUGUAGAAAACCUG | ABCA2 | 0.3072
UCCCUGACCGGUUCAACAC | VAT1 | -0.1251
ACACGAUCAUCCACAAGGC | GRIK4 | -1.188
UAGAGAUUCAAGAAGCCCU | GSTO2 | 0.4785
UUCAGGAUUAAAUUGUGCC | CINP | 0.4397
AAUUCUAAUGAACAUAUCG | HSPA1B | 0.745

For reference, 5 entries once more:

{"strand": "UCCAUGAACAUACUCAUUC", "gene": "VRK3", "seed-corrected z-score": "0.9486"}
{"strand": "UCACUCGUCAUCAAAGUUC", "gene": "RAD23A", "seed-corrected z-score": "-0.7893"}
{"strand": "UAAGGAUAUUCGGGAAUCC", "gene": "DTHD1", "seed-corrected z-score": "0.2082"}
{"strand": "UUGUCUUUGGGAUCCAUUG", "gene": "TARP", "seed-corrected z-score": "-0.7854"}
{"strand": "UUGUUUACAACUUUGACAG", "gene": "ZAR1", "seed-corrected z-score": "2.018"}

From PubChem BioAssay record AID1159506 (NCATS, 2015).